# Laboratory results published in US20230192630A1, “AZOLE DERIVATIVE, METHOD FOR PRODUCING AZOLE DERIVATIVE, AGENT FOR AGRICULTURAL AND HORTICULTURAL USE, AND INDUSTRIAL MATERIAL PROTECTION AGENT” (Kureha Corporation, priority 2020, published 2023).
# Some results were stated once for a whole list of compounds, not compound by compound.
# Legend:
# Zymoseptoria tritici [1] = experiment: Antimicrobial activity test for plant pathogens (Petri dish test), Test Example A; type: cell-based; conditions: 100 mg/L of the test substance; PDA plate, 25 °C, 14 days
# Fusarium graminearum = type: cell-based; conditions: 100 mg/L of the test substance; PDA plate, 25 °C, 3 days
# Zymoseptoria tritici [2] = experiment: Wheat septoria leaf blotch disease controlling effect test; type: in vivo; conditions: 100 g/ha, sprayed 1,000 L/ha; wheat Norin No. 61; day 27 to day 33 after inoculation
# Rhynchosporium secalis = experiment: Antimicrobial activity test for plant pathogens (Petri dish test), Test Example C; conditions: 100 mg/L of the test substance; PDA plate, 25 °C, 14 days
# Botrytis cinerea = experiment: Cucumber gray mold disease controlling effect test; type: in vivo; conditions: 100 g/ha, sprayed 1,000 L/ha; cucumber cotyledon stage; day 4 after inoculation
# [3] = test system: Erysiphe graminis f. sp tritici; experiment: Wheat powdery mildew disease controlling effect test; type: in vivo; conditions: 100 g/ha, sprayed 1,000 L/ha; wheat Norin No. 61; day 7 to day 14 after inoculation
# Puccinia recondita = experiment: Wheat brown rust disease controlling effect test; type: in vivo; conditions: 100 g/ha, sprayed 1,000 L/ha; wheat Norin No. 61; day 10 to day 14 after inoculation
# Phakopsora pachyrhizi = experiment: Asian soybean rust disease controlling effect test; type: in vivo; conditions: 100 g/ha, sprayed 1,000 L/ha; soybean Enrei; day 15 to 20 after inoculation
Structure (SMILES),antibacterial index (fungal growth inhibition rate) (Zymoseptoria tritici [1]),antibacterial index (fungal growth inhibition rate) (Fusarium graminearum),controlling rate (Zymoseptoria tritici [2]) [%],antibacterial index (fungal growth inhibition rate) (Rhynchosporium secalis),controlling rate (Botrytis cinerea) [%],controlling rate [3] [%],controlling rate (Puccinia recondita) [%],controlling rate (Phakopsora pachyrhizi) [%]
CC1(C)Cc2cc(Oc3ccc(Cl)cc3)ccc2C1(O)Cn1ccnc1 (racemic) [Compound I-1],5 (80% or more),5 (80% or more),≥ 80,5 (80% or more),–,–,–,–
"CCCC1Cc2cc(Oc3ccc(Cl)cc3)ccc2C1(O)Cn1cncn1 (single isomer, unassigned) [Compound I-37]",5 (80% or more),5 (80% or more),–,5 (80% or more),≥ 80,≥ 80,≥ 80,≥ 80
